{"source": "PubChem BioAssay AID493014", "about": "(National Center for Advancing Translational Sciences (NCATS), 2011)", "note": "In all, about 340,000 compounds went through this assay and about 170 (0.05%) were called active. The shares of active, inactive and inconclusive entries below differ from those in the screen. Calls follow the shape of the dose curve; as a rule, active = well fitted inhibition curve with a large enough effect in the signal ratio, with a control signal flat (not every such curve was filed as active); inconclusive = small, poorly fitted or top-dose-only effect, or effect the other way, or a change in a side signal; inactive = flat fitted curve, though single readings scatter; the % refers to the signal ratio. A potency beside an inconclusive call is a rough fit, not a confirmed value. Potency is read from the fitted curve at half-maximal effect."}
{"assay": "qHTS Assay to Find Inhibitors of Chronic Active B-Cell Receptor Signaling;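 as to activity change, negative = inhibition: plate controls were basal doxycycline-induced cells for no effect and cells given 10 µM MG132 for full effect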", "details": "ABC-DLBCL IkBa-CBG/CBR reporter, luminescence ratio (green luciferase fused to IkBa over red control in TMD8 lymphoma cells), 4 h; activity change, negative = inhibition: at 46.1 µM (top of the series) unless noted", "in_short": "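Concentration-response series (up to 46 uM) were applied to TMD8 dual-reporter cells for 4 h at 37C with doxycycline. Green/red ratio, after filter-overlap correction, defined %Activity; red signal alone was normalised to basal cells and zero luminescence.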"}
{"smiles": "CCCCc1nc(SCC(=O)N2CCCC2)c2c(=O)n(C)c(=O)n(C)c2n1", "activity change, negative = inhibition": "inconclusive: -176%"}
{"smiles": "O=C1NCCCC1C(=O)N/N=C/c1ccccc1", "note": "(stereo unspecified)", "activity change, negative = inhibition": "inconclusive: 3.45%"}
{"smiles": "N/C(=N\\OC(=O)c1ccc(Cl)c(Cl)c1)c1cccc(CSc2ccccn2)c1", "Potency": "inconclusive: 14.1 µM [rising, partial curve, poor fit]"}
{"smiles": "COc1ccc(Oc2nc(-c3cccnc3)nc3ccccc23)cc1", "activity change, negative = inhibition": "inconclusive: -13.8%"}
{"smiles": "CCNc1nc(ON=C(C)C)nc(N(C)C)n1", "activity change, negative = inhibition": "inconclusive: 4.86%"}
{"smiles": "O=C(Nc1ccccc1)C1=C[C@@H](C2CCCCC2)C[C@@H](OCc2ccc(CO)cc2)O1", "Potency": "inconclusive: 4.47 µM [rising, partial curve]"}
{"smiles": "O=C(N/N=C/c1cccs1)c1cccc(S(=O)(=O)Nc2ccc(Cl)cc2)c1", "activity change, negative = inhibition": "inconclusive: -1.61%"}
{"smiles": "CC(=O)c1ccc(NC2OC(CO)C(O)C(O)C2O)cc1", "note": "(stereo unspecified)", "activity change, negative = inhibition": "inconclusive: 2.71%"}
{"smiles": "CCCOc1cccc(-c2nc3ccccc3c(=O)o2)c1", "Potency": "inconclusive: 35.5 µM [rising, single point]"}
{"smiles": "CCCOC(=O)c1ccc(NS(=O)(=O)c2cccs2)cc1", "activity change, negative = inhibition": "inconclusive: -0.291%"}
{"smiles": "O=C(NNc1cccc(Cl)c1)c1cccnc1Oc1ccccc1", "activity change, negative = inhibition": "inconclusive: -12.4%"}
{"smiles": "CCOC(=O)c1cnc2nc(COc3ccccc3)[nH]n2c1=O", "Potency": "inconclusive: 29.1 µM [falling, single point]"}
{"smiles": "COc1cc(C(=O)O/N=C2\\C=CC(=O)C(C)=C2)cc(OC)c1OC", "Potency": "inconclusive: 14.1 µM [falling, partial curve]"}
{"smiles": "CCCOc1ccc(C(=O)Nc2ccc3c(c2)OCCO3)cc1", "activity change, negative = inhibition": "inactive: -1.69%"}
{"smiles": "O=C(NN=C1C2CC3CC(C2)CC1C3)c1ccncc1", "Potency": "inconclusive: 35.5 µM [falling, single point]"}
{"smiles": "COc1ccc(-c2ccc(SCC(=O)c3ccc(F)cc3)nn2)cc1OC", "activity change, negative = inhibition": "inactive: -6.38%"}
{"smiles": "COc1ccc(NC(=O)C(C)N2C(=O)c3ccccc3S2(=O)=O)c(OC)c1", "note": "(stereo unspecified)", "Potency": "inconclusive: 29.1 µM [falling, single point]"}
{"smiles": "COc1cccc(-c2cc(C(F)(F)F)nc(-n3cc(Cl)cn3)n2)c1", "activity change, negative = inhibition": "inactive: -0.988%"}
{"smiles": "CC(C)Cc1cc(C(=O)N2CCN(C(c3ccccc3)c3ccccc3)CC2)no1", "activity change, negative = inhibition": "inconclusive: 12.5%"}
{"smiles": "O=C(COc1cccc2ccccc12)NNC(=O)Nc1ccccc1", "Potency": "inconclusive: 28.2 µM [falling, single point]"}
{"smiles": "CCOC(=O)N1CCN(C(=O)CCCCCn2c(=S)[nH]c3cc4c(cc3c2=O)OCO4)CC1", "Potency": "inconclusive: 2.24 µM [rising, full curve, poor fit]"}
{"smiles": "CC(NCCCOc1cccc2ccccc12)c1ccccc1", "note": "(stereo unspecified)", "activity change, negative = inhibition": "inconclusive: -15.5%"}
{"smiles": "CCCCc1cn([C@@H](CCCCNC(=O)OC(C)(C)C)C(=O)N2CCN(C(=O)OC(C)(C)C)CC2)nn1", "activity change, negative = inhibition": "inactive: -5.22%"}
{"smiles": "COc1ccc(C2N(S(=O)(=O)c3ccc(C)cc3)CCN2S(=O)(=O)c2ccc(C)cc2)cc1", "activity change, negative = inhibition": "inactive: 14.7%"}
{"smiles": "COc1ccc(-c2nc(C(F)(F)F)c(OC)o2)cc1OC", "activity change, negative = inhibition": "inconclusive: -12%"}
{"smiles": "O=S(=O)(Nc1ccc(N2CCCCC2)cc1)c1ccccc1", "Potency": "inconclusive: 9.2 µM [rising, partial curve, poor fit]"}
{"smiles": "Cn1nnnc1SCC(=O)N1CCN(C(=O)c2ccco2)CC1", "activity change, negative = inhibition": "inactive: 0.811%"}
{"smiles": "O=C(Nc1ccc(S(=O)(=O)N2CCOCC2)cc1)c1cccc(Br)c1", "activity change, negative = inhibition": "inconclusive: 0.107%"}
{"smiles": "C/C(=N\\NC(=O)c1cccc(Cl)c1)c1cccc(NC(=O)c2ccco2)c1", "Potency": "inconclusive: 29.1 µM [falling, single point]"}
{"smiles": "O=C(CC1C(=O)NCCN1Cc1ccccc1C(F)(F)F)NCCn1cccn1", "note": "(stereo unspecified)", "activity change, negative = inhibition": "inconclusive: 17.6%"}
{"smiles": "COc1cc(/C=N/NC(=S)NC2CC3C=CC2C3)cc(OC)c1OC", "note": "(stereo unspecified)", "Potency": "inconclusive: 35.5 µM [falling, single point]"}
{"smiles": "Cc1cc(SCC(=O)N/N=C/c2ccc(O)cc2O)c(C)cc1Br", "Potency": "inconclusive: 23.1 µM [falling, partial curve]"}
{"smiles": "COc1cc(CCC(=O)OCC(=O)NCCc2ccc(S(N)(=O)=O)cc2)cc(OC)c1OC", "activity change, negative = inhibition": "inconclusive: 1.59%"}
{"smiles": "COc1cccc(CNC(=O)COC(=O)CN(C)S(=O)(=O)c2ccc(NC(C)=O)cc2)c1", "activity change, negative = inhibition": "inconclusive: 4.84%"}
{"smiles": "CC(=O)Nc1ccc(NS(=O)(=O)c2cc3c4c(c2)CC(=O)N4CCC3)cc1", "activity change, negative = inhibition": "inconclusive: 5.44%"}
{"smiles": "CCn1cc(CN2CCCC(CNS(=O)(=O)c3ccc(OC)cc3)C2)cn1", "note": "(stereo unspecified)", "activity change, negative = inhibition": "inactive: 1.6%"}
{"smiles": "O=C(c1ccco1)N1CCN(C(=O)c2cc(-c3ccccn3)nc3ccccc23)CC1", "activity change, negative = inhibition": "inactive: -1.2%"}
{"smiles": "C[C@H](CO)N1C[C@H](C)[C@@H](CN(C)C(=O)Nc2ccc(C(F)(F)F)cc2)Oc2c(NC(=O)Nc3ccccc3)cccc2C1=O", "activity change, negative = inhibition": "inconclusive: -13%"}
{"smiles": "CC(C)(C)Sc1ccc([N+](=O)[O-])cc1C(=O)Nc1ccncc1", "activity change, negative = inhibition": "inconclusive: 1.4%"}
{"smiles": "Cc1ccc2[nH]c3c(=O)n(CCCN4CCN(C)CC4)cnc3c2c1", "activity change, negative = inhibition": "inconclusive: 5.84%"}
{"smiles": "S=C(NCC1CC1)N/N=C/c1ccccc1Cl", "activity change, negative = inhibition": "inconclusive: -7.41%"}
{"smiles": "Cc1c(C(=O)Oc2cc(N)n(S(C)(=O)=O)n2)cccc1[N+](=O)[O-]", "activity change, negative = inhibition": "inconclusive: -15.5%"}
{"smiles": "COc1ccc(C(CNC(=O)c2cc3ccccc3o2)N2CCCCC2)cc1", "note": "(stereo unspecified)", "activity change, negative = inhibition": "inactive: 1.77%"}
{"smiles": "c1cc(-c2nnc3n2CCCCC3)ccn1", "activity change, negative = inhibition": "inactive: 0.285%"}
{"smiles": "COc1ccc(/C(N)=N/OC(=O)Cc2ccccc2OC)cc1", "activity change, negative = inhibition": "inconclusive: -25.1%"}
{"smiles": "Cc1[nH]nc2c1C(c1cn[nH]c1-c1ccc(F)cc1)C(C#N)=C(N)O2", "note": "(stereo unspecified)", "Potency": "inconclusive: 17.8 µM [falling, single point]"}
{"smiles": "Oc1ccc(N=Nc2ccccc2C(F)(F)F)c2cccnc12", "activity change, negative = inhibition": "inconclusive: 4.68%"}
{"smiles": "Cn1c2ccccc2c(=O)c2ccc(C#CC3(N)CCCCC3)cc21", "activity change, negative = inhibition": "inconclusive: 29.8%"}
{"smiles": "CN(C)CCn1c2c(c(SCC(=O)Nc3ccccc3)nc1=O)CCCC2", "Potency": "inconclusive: 23.1 µM [falling, partial curve, poor fit]"}
{"smiles": "C=CCN(CC(=O)NCc1ccc(OC)cc1)C(=O)c1csnn1", "activity change, negative = inhibition": "inconclusive: 13.1%"}
{"smiles": "CN(C)S(=O)(=O)c1ccc(N2CCCC2)c(C(=O)Nc2ccccc2N2CCOCC2)c1", "Potency": "inconclusive: 6.51 µM [falling, single point]"}
{"smiles": "CC(=O)Nc1ccc(NC(=O)c2cc(-c3cc(C)cc(C)c3O)n[nH]2)cc1", "activity change, negative = inhibition": "inconclusive: -13.1%"}
{"smiles": "CCN(CC)c1ccc(S(=O)(=O)N2CCCCC2)cc1NC(=O)C1CSC2(C)CCC(=O)N12", "note": "(stereo unspecified)", "activity change, negative = inhibition": "inconclusive: -8.44%"}
{"smiles": "COC(=O)Nc1ccc(OCc2ccccc2)cc1", "activity change, negative = inhibition": "inconclusive: -10.9%"}
{"smiles": "COC(=O)c1cccc(C(=O)N2CCC(CO)(Cc3ccccc3Cl)CC2)c1", "Potency": "inconclusive: 25.1 µM [falling, single point]"}
{"smiles": "Cc1ccc(/C=C2\\SC(=S)N(CCCC(=O)Nc3cccnc3)C2=O)cc1", "Potency": "inconclusive: 0.631 µM [rising, partial curve, poor fit]"}
{"smiles": "CCc1cc(C(=O)N/N=C/c2ccc(O)cc2)c2ccccc2n1", "Potency": "inconclusive: 10 µM [falling, partial curve]"}
{"smiles": "NNC(=O)c1oc2nc(-c3ccco3)cc(-c3ccco3)c2c1N", "activity change, negative = inhibition": "inconclusive: 14.1%"}
{"smiles": "COc1ccc(CC(=O)Nc2ccc(-c3cn4cccc(C)c4n3)cc2)cc1OC", "Potency": "inconclusive: 16.4 µM [falling, partial curve, poor fit]"}
{"smiles": "CC(=O)[C@H]1[C@H]([C@H](O)[C@H](O)CO)O[C@](O)(C(=O)O)C[C@@H]1O", "activity change, negative = inhibition": "inactive: 18.1%"}
{"smiles": "CCOC(=O)c1ccc(-c2csc(NC(=O)CN3CCC(C)CC3)n2)cc1", "activity change, negative = inhibition": "inconclusive: 12.1%"}
{"smiles": "Cc1[nH]nc2c1C(c1c[nH]c3ccccc13)C(C#N)=C(N)O2", "note": "(stereo unspecified)", "Potency": "inconclusive: 25.1 µM [cytotoxic, single point]"}
{"smiles": "COCc1[nH]nc2c1C(C1C=CCCC1)C(C#N)=C(N)O2", "note": "(stereo unspecified)", "Potency": "inconclusive: 18.4 µM [falling, partial curve]"}
{"smiles": "CCOc1cc(/C=N/NC(=O)CSc2nnc(C)s2)ccc1OCc1ccccc1Cl", "activity change, negative = inhibition": "inconclusive: 7.47%"}
{"smiles": "CCC(C(=O)O)n1c(C(F)(F)F)nc2ccccc21", "note": "(stereo unspecified)", "Potency": "inconclusive: 0.517 µM [rising, partial curve, poor fit]"}
{"smiles": "COc1ccc(CC(=O)OC(C)C(=O)Nc2ccc(Cl)cn2)cc1", "note": "(stereo unspecified)", "activity change, negative = inhibition": "inactive: -2.12%"}
{"smiles": "COc1cc(NC(=O)c2ccc3c(c2)OCO3)ccc1NC(=O)c1cccs1", "activity change, negative = inhibition": "inconclusive: 20.2%"}
{"smiles": "O=C(CCN1CCOCC1)c1ccc2c(c1)OCCO2", "Potency": "inconclusive: 32.6 µM [rising, single point]"}
{"smiles": "COc1ccccc1Nc1nc(-c2sc(NC(=O)C(C)(C)C)nc2C)cs1", "activity change, negative = inhibition": "inactive: -1.98%"}
{"smiles": "Cc1cc(C(=O)NN=Cc2ccc(-c3ccc(F)cc3)o2)c(C)o1", "activity change, negative = inhibition": "inconclusive: -3.89%"}
{"smiles": "Cc1ccc(S(=O)(=O)N2CCOCC2)cc1NC(=O)COC(=O)CNC(=O)c1ccc(C(C)(C)C)cc1", "activity change, negative = inhibition": "inconclusive: -16%"}
{"smiles": "COc1ccc(N(CC(=O)NC2CCCCC2C)S(=O)(=O)c2c(C)nn(C)c2C)cc1", "note": "(stereo unspecified)", "activity change, negative = inhibition": "inactive: -9.7%"}
{"smiles": "CC(C)(C)c1ccc(C(=O)CC(Sc2ccc(Cl)cc2)C(=O)O)cc1", "note": "(stereo unspecified)", "activity change, negative = inhibition": "inconclusive: 11.8%"}
{"smiles": "COc1ccc(NS(=O)(=O)c2cc(NC(=O)/C=C/c3cccs3)ccc2N2CCOCC2)cc1", "Potency": "inconclusive: 13 µM [rising, partial curve, poor fit]"}
{"smiles": "Cc1ccccc1-c1nnc(SCC(=O)NCc2ccc3c(c2)OCO3)n1C", "activity change, negative = inhibition": "inconclusive: -16%"}
{"smiles": "O=C(NC(=S)NNC(=O)c1ccccc1O)c1ccc(F)cc1", "Potency": "inconclusive: 25.1 µM [falling, partial curve]"}
